Results: publication PMC9880023
No constants are given. Whether binding was seen depends on the method and setting. For part of these data: Binding can be weak; no strength is given. Sequences can lack the tags named with a protein.

Experiments:
[1] = target: HA-NRX1βS4(−)ΔHRD, expressed in cultured rat hippocampal neurons; test: protein-clustering assay with protein-coated beads on neurons; cis pair co-expressed in the same axon; co-accumulation at NLGN1-Fc-coated beads, surface immunostaining
[2] = target: HA-NRX1βS4(−), expressed in cultured rat hippocampal neurons; test: as above

B1: untagged full-length SorCS1b, expressed in cultured rat hippocampal neurons (SorCS1b-IRES-GFP) (receptor, UniProt Q9JLC4 34-1167)
chain: SLSCCPPQHPSSTPRRTLTPRGFPHPGPLGRAPATPPPLFMRPLFAVAPGDRALFLERAGGSRVSVATAARSGRRRRSGTEPEKIEPGEGASRSRRDMLKDGGQQGLGTGARDPGKATRFRMEELRLTSTTFALTGDSAHNQAMVHWSGHNSSVILILTKLYDYNLGSITESSLWRSTDYGTTYEKLNDKVGLKTILSYLYVCPTNKCKIMLLTDPEIESSLLISSDEGATYQKYRLNFYLQSLLFHPKQEDWILAYSQDQKLYSSAEFGRRWQLIQESVVPNRFYWSVMGSSKEPDLVHLEARTVDGHSIYLTCRMQNCTEANRNKPFPGYIDPDSLIVQDDYVFVQLTSGGRPHYYVSYRRSPFAQMKLPKYALPKDMHVISTDENQVFAAVQEWNQNDTYNLYISDTRGVYFTLALENVRSSRGPEGNVMIDLYEVAGIKGMFLANKKIDNQVKTFITYNKGRDWRLLQAPDADLRGDPVHCLLPYCSLHLHLKVSENPYTSGIIASRDTAPSIIVASGNIGSELSDSDISMFVSSDAGNTWRQIFEEEHSILYLDQGGVLVAMKHTSLPIRHLWLSFDEGRSWSKYSFTSIPLFVDGVLGEPGEETLIMTVFGHFSHRSEWQLVKVDYKSIFDRRCAEEDYRPWQLHSQGEACIMGAKRIYKKRKSERKCMQKYAGAMESEPCVCTEADFDCDYGYERHSNGQCLPAFWFNPSSLSKDCSLGQSYLNSAGYRKVVSNNCTDGVREQYTAKPQKCPGKAPRGLRIVTADGKLTAEQGHNVTLMVQLEEGDVQRTLIQVDFGDGIAVSYVNLSSMEDGIKHVYQNVGIFRVTVQVDNSLGSDSAVLYLHVTCPLEHVHLSLPFVTTKNKEVNATAVLWPSQVGTLTYVWWYGNNTEPLITLEGSISFKFTSEGMNTITVQVSAGNAILQDTKTIAVYEEFRSLRLAFSPNLDDYNPDIPEWRRDISRVIKKSLVEATGIPSQHILVAVLPGLPTAAELFVLPYQDGTRENKRSPEDLEQISEVLIHKLNQNLVHFELKPGVQVLVHAAHLTAAPLVDLTPTHSGSAMLMLLSVVFVGLAVFVIYKFKRRVALPSPPSPSAQPGDSSLRLQRPRPATPPSSPKRGSAGAQFAI
- binding [1]: no binding
- binding [2]: binds

B2: untagged SorCS1bΔVPS10, expressed in cultured rat hippocampal neurons (SorCS1bΔVPS10-IRES-GFP) (receptor, UniProt Q9JLC4)
chain: SLSCCPPQHPSSTPRRTLTPRGFPHPGPLGRAPATPPPLFMRPLFAVAPGDRALFLERAGGSRVSVATAARSGRRRRSGTEPEKIEPGEGASRSRRDMLKDGGQQGLGTGARDPGKATRFRMEELRLTSTTFALTGDSAHNQAMVHWSGHNSSVILILTKLYRGLRIVTADGKLTAEQGHNVTLMVQLEEGDVQRTLIQVDFGDGIAVSYVNLSSMEDGIKHVYQNVGIFRVTVQVDNSLGSDSAVLYLHVTCPLEHVHLSLPFVTTKNKEVNATAVLWPSQVGTLTYVWWYGNNTEPLITLEGSISFKFTSEGMNTITVQVSAGNAILQDTKTIAVYEEFRSLRLAFSPNLDDYNPDIPEWRRDISRVIKKSLVEATGIPSQHILVAVLPGLPTAAELFVLPYQDGTRENKRSPEDLEQISEVLIHKLNQNLVHFELKPGVQVLVHAAHLTAAPLVDLTPTHSGSAMLMLLSVVFVGLAVFVIYKFKRRVALPSPPSPSAQPGDSSLRLQRPRPATPPSSPKRGSAGAQFAI
- binding [2]: no binding
